What was measured:
Type in all cases: cell-based, human
MDA-MB-231 cells = test: Antiproliferation assay (cell counting, 48 h) in MDA-MB-231 breast cancer cells; details: FB IC50 relative to MDA-MB-231 IC50
Excerpt: (§1) Regarding the different characteristics of the used breast cancer cell lines, we can notice that MDA-MB-231 and Hs578T are triple negative.
(§2) Primary skin normal fibroblasts were kindly provided by Prof. Emer.

MCF-7 cells = test: Antiproliferation assay (cell counting, 48 h) in MCF-7 breast cancer cells; details: FB IC50 relative to MCF-7 IC50
Excerpt: as §1, §2

Hs578T cells = test: Antiproliferation assay (cell counting, 48 h) in Hs578T breast cancer cells; details: FB IC50 relative to Hs578T IC50
Excerpt: as §1, §2

Substance | Selectivity Index for MDA-MB-231 (MDA-MB-231 cells) | Selectivity Index for MCF-7 (MCF-7 cells) | Selectivity Index for Hs578T (Hs578T cells)
(1R,4aS)-methyl 7-((E)-3-(1H-pyrrol-3-yl)acryloyl)-6-hydroxy-1,4a-dimethyl-1,2,3,4, 4a,9,10,10a-octahydrophenanthrene-1-carboxylate [Compound 43] | 1.13 | 7.70 | 1.99
(1R,4aS)-methyl 7-((E)-3-(2-chloroquinolin-4-yl)acryloyl)-6-hydroxy-1,4a-dimethyl-1,2,3,4, 4a,9,10,10a-octahydrophenanthrene-1-carboxylate [Compound 41] | 1.12 | 1.99 | 0.77
